Data: patent US20210386754A1, “COMPOSITIONS AND METHODS FOR TREATING ATHEROSCLEROTIC VASCULAR DISEASE” (AUGUSTA UNIVERSITY RESEARCH INSTITUTE, INC., priority 2020, published 2021)

B1: M-CSF: macrophage colony-stimulating factor, physiological stimulator of macropinocytosis (protein, UniProt P09603 33-554, looked up)
Macrophage colony-stimulating …: EEVSEYCSHMIGSGHLQSLQRLIDSQMETSCQITFEFVDQEQLKDPVCYLKKAFLLVQDIMEDTMRFRDNTPNAIAIVQLQELSLRLKSCFTKDYEEHDKACVRTFYETPLQLLEKVKNVFNETKNLLDKDWNIFSKNCNNSFAECSSQDVVTKPDCNCLYPKAIPSSDPASVSPHQPLAPSMAPVAGLTWEDSEGTEGSSLLPGEQPLHTVDPGSAKQRPPRSTCQSFEPPETPVVKDSTIGGSPQPRPSVGAFNPGMEDILDSAMGTNWVPEEASGEASEIPVPQGTELSPSRPGGGSMQTEPARPSNFLSASSPLPASAKGQQPADVTGTALPRVGPVRPTGQDWNHTPQKTDHPSALLRDPPEPGSPRISSLRPQGLSNPSTLSAQPQLSRSHSSGSVLPLGELEGRRSTRDRRSPAEPEGGPASEGAARPLPRFNSVPLTDTGHERQSEGSFSPQLQESVFHLLVPSVILVLLAVGGLLFYRWRRRSHQEPQRADSPLEQPEGSPLTQDDRQVELPV

Legend:
[1] = test system: THP-1 macrophages; test: LDL oxidation by agarose gel electrophoresis of conditioned media; assay type: cell-based, human; conditions: M-CSF 100 ng/mL or PDGF 200 ng/mL, 50 μg/mL nLDL, 24 hours
[2] = test system: hypercholesterolemic mice (PCSK9-AAV-mediated LDLR knockdown); test: Atherosclerosis model: PCSK9-AAV, partial LCA ligation, Western diet; assay type: in vivo, mouse

Molecule	relative electrophoretic mobility (REM) of LDL from conditioned media vs negative control nLDL [1]	other results
PDGF	not different	–
CCN(c1nc(N)c(C(=O)N=C(N)N)nc1Cl)C(C)C [EIPA, 5-(N-ethyl-N-isopropyl)amiloride]	–	Plasma cholesterol levels ([2]; EIPA vs vehicle, WT and CD36-/-/SR-A-/- mice): not different
CN(C)CCCN1c2ccccc2CCc2ccccc21 [imipramine]	–	total cholesterol levels ([2]; imipramine-treated vs control mice): no significant differences
B1	not different	–
